Laboratory results: PubChem BioAssay AID652243 (Drosophila RNAi Screening Center, 2013)
In all, the deposit lists about 24,000 reagents; shown is a random part of those with a known target gene and a result. Of all reagents, 246 (1%) were called active. 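Plates not normalised; calls are printed but the firefly/Renilla ratio behind them is not deposited; fold cut for lowering reported inconsistently.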 Raw values are not corrected between plates. Entries without a mark were called inactive. A plus sign joins genes that one reagent is predicted to hit. Reagent sequences are not shown. Not given: the amount of reagent.

- Test: 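Fly genes required for human androgen receptor driven transcription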 (primary screen)
- Cells: Drosophila S2R+ cells
- Reagents: long dsRNA against Drosophila genes
- Time to read-out: 72 h (48 h, then 24 h hormone)
- Conditions: synthetic androgen R1881 at 10 nM for 24 h
- Read-out: 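Firefly light from an androgen-responsive reporter and Renilla control light per well, raw and unnormalised, for each of two replicates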
- Direction: firefly reporter light: higher = more light from androgen-responsive reporter; Renilla control light: higher = more constitutive control signal (cell number, transfection)
- Hit rule: 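Across duplicate plates, a knock-down whose log firefly/Renilla ratio shifted a set fold down or up from the GFP/LacZ control mean was a hit; the downward cut appears as both 1.5 and 3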
- Meaning of the calls: active = hit: reporter lowered or raised; inactive = no hit

predicted target	dsRNA	firefly reporter light, replicate 1	firefly reporter light, replicate 2	Renilla control light, replicate 1	Renilla control light, replicate 2
otu (GeneID 31789)	DRSC18811	2.71e5	2.69e5	3.30e6	3.08e6
otu (GeneID 31789)	DRSC27953	9.85e5	4.63e5	3.28e6	1.19e6
Rpn1 (GeneID 40174)	DRSC11274	32801	40170	4.20e5	3.97e5
CG31248 (GeneID 40853)	DRSC22722	6.83e5	7.75e5	1.01e6	1.37e6
CG14740 (GeneID 41468)	DRSC14960	54420	1.12e5	4.64e5	6.43e5
larp (GeneID 53567)	DRSC14728	1.97e5	2.96e5	2.27e6	2.90e6
larp (GeneID 53567)	DRSC16984	1.22e5 (active)	1.46e5	2.77e6	3.28e6
larp (GeneID 53567)	DRSC21856	8.03e5	9.74e5	1.42e6	1.47e6
larp (GeneID 53567)	DRSC24427	7.98e5	6.99e5	8.70e5	1.06e6
larp (GeneID 53567)	DRSC28325	4.72e5	6.40e5	8.92e5	1.47e6
CG9316 (GeneID 35333)	DRSC03195	65061	1.00e5	9.30e5	1.21e6
CG44774 (GeneID 31424)	DRSC18342	1.48e5	1.99e5	1.66e6	2.11e6
CG44774 (GeneID 31424)	DRSC27595	3.89e5	3.14e5	3.59e5	5.80e5
CG7166 (GeneID 40401)	DRSC11809	1.07e5	1.41e5	1.84e6	2.36e6
CG11413 + CG4622	DRSC04109	1.09e5	1.31e5	1.25e6	1.40e6
CG11413 + CG4622	DRSC26158	2.28e5	2.40e5	5.81e5	4.51e5
raptor (GeneID 31543)	DRSC18359	1.32e5	1.11e5	1.21e6	1.27e6
Ctf4 (GeneID 36551)	DRSC06380	9.59e5	8.04e5	1.85e6	1.43e6
CG17029 (GeneID 39740)	DRSC10240	1.84e5	2.01e5	2.58e6	2.49e6
CG17029 (GeneID 39740)	DRSC29418	4.19e5	4.50e5	1.25e6	1.25e6
PolI (GeneID 40965)	DRSC16267	89524	73059	1.97e6	1.32e6
CG12056 (GeneID 31855)	DRSC17796	96567	1.03e5	7.49e5	6.02e5
Rpp20 + CG33932	DRSC19467	1.32e5	1.11e5	5.61e5	2.32e5
Dscam3 (GeneID 42103)	DRSC14525	1.09e5	1.51e5	1.64e6	1.96e6
Dscam3 (GeneID 42103)	DRSC16376	1.93e5	1.58e5	2.76e6	2.26e6

A run of entries of the results above, for reference:
predicted target	dsRNA	firefly reporter light, replicate 1	firefly reporter light, replicate 2	Renilla control light, replicate 1	Renilla control light, replicate 2
larp (GeneID 53567)	DRSC16984	1.22e5 (active)	1.46e5	2.77e6	3.28e6
larp (GeneID 53567)	DRSC21856	8.03e5	9.74e5	1.42e6	1.47e6
larp (GeneID 53567)	DRSC24427	7.98e5	6.99e5	8.70e5	1.06e6
